Reference: PMC10249358, “Elucidation of Short Linear Motif-Based Interactions of the FERM Domains of Ezrin, Radixin, Moesin, and Merlin” (Biochemistry, 2023)
These are yes or no findings as the source states them, for the method shown. For some assays here: Binding seen in cells or lysates may run through a third protein. Some binding calls cover weakened binding; strength is not graded here.

The chains behind the UniProt entries cited, without tags or fusion partners. Where a name states a change or a piece, a line headed by the entry shows the natural chain unless it says otherwise. Residues count along the entry.
UniProt P35240, residues 22-312: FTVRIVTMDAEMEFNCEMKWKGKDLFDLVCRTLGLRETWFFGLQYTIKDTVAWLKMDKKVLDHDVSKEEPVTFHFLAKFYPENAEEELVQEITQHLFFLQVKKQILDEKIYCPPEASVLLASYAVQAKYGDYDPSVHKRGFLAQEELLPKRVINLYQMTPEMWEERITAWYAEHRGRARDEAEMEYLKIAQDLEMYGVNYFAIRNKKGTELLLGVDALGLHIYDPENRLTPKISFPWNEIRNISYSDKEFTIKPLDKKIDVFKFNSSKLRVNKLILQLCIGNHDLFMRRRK
UniProt Q8IZU9: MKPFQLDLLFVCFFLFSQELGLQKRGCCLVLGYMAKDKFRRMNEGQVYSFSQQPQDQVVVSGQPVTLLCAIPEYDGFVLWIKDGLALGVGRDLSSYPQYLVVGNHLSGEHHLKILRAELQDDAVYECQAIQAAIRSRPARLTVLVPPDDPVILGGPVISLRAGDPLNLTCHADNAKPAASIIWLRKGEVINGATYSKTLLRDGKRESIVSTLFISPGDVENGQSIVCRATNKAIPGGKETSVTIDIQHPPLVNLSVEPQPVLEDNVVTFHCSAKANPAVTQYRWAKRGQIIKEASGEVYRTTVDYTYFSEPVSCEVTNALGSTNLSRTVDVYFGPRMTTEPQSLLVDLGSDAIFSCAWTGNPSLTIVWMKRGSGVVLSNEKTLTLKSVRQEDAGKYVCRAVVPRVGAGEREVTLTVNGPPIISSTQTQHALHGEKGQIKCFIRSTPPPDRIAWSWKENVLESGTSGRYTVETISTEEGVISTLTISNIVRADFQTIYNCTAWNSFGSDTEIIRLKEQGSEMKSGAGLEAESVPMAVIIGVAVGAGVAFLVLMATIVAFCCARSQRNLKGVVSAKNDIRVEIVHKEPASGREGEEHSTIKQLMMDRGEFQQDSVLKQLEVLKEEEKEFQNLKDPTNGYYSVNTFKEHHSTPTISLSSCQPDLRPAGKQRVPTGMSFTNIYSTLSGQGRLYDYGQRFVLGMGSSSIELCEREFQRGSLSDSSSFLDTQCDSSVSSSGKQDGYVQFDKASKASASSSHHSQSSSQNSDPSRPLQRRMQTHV
UniProt O14745: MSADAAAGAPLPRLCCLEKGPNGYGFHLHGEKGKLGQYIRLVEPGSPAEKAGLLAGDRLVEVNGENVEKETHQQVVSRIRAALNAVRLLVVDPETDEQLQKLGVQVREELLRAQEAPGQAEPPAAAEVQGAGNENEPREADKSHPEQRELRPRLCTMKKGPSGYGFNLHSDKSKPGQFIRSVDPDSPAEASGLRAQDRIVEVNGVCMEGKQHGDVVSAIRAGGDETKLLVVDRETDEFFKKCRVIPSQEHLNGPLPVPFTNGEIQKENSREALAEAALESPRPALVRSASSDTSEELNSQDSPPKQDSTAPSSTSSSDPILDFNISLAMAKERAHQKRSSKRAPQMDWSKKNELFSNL
UniProt P57082: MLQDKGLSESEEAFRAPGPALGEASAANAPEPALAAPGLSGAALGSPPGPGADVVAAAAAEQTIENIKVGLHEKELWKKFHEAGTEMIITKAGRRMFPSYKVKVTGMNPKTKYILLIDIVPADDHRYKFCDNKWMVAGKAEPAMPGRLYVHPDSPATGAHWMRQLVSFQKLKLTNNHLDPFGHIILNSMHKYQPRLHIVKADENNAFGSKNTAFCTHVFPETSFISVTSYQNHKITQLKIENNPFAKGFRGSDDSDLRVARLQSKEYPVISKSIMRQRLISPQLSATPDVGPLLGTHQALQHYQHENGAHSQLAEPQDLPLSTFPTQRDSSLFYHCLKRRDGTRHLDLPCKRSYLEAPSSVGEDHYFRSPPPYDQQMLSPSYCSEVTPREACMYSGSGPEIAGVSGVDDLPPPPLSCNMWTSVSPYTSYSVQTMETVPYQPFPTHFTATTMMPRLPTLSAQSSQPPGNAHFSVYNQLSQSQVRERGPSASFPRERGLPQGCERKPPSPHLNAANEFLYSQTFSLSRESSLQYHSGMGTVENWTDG
UniProt Q969S3: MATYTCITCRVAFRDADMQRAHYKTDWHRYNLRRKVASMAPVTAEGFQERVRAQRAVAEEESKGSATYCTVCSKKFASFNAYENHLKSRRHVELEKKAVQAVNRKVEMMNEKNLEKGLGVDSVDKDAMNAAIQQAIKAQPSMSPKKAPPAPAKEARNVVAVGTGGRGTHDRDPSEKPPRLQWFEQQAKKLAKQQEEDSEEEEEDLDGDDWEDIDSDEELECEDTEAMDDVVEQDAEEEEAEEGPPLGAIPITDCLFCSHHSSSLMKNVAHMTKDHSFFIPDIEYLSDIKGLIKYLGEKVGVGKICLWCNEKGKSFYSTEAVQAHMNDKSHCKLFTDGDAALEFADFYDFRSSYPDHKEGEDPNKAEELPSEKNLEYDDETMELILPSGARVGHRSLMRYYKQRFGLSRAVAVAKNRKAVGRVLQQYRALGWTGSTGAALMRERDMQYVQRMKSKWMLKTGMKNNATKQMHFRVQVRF
UniProt A6ND36: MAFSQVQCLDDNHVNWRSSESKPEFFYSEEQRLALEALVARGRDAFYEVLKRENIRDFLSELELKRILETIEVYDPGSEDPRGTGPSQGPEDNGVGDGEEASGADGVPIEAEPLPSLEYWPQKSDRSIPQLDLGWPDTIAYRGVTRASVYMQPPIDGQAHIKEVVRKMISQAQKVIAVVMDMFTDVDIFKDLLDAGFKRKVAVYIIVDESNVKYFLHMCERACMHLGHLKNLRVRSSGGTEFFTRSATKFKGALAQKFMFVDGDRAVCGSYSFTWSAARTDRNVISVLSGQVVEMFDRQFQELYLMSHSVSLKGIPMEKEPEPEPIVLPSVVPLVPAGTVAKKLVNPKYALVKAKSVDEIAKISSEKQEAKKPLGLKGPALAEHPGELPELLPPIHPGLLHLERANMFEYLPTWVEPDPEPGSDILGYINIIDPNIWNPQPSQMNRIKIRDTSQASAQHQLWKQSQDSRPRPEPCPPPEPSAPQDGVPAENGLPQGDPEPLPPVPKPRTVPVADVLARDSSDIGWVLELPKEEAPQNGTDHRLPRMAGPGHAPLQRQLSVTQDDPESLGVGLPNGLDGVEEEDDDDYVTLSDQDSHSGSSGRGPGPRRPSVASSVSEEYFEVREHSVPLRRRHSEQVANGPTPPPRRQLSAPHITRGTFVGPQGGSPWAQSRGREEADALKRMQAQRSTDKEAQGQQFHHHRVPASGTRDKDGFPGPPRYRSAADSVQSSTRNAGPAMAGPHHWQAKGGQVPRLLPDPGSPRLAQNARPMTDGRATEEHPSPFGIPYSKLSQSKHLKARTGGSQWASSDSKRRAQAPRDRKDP
UniProt Q16665: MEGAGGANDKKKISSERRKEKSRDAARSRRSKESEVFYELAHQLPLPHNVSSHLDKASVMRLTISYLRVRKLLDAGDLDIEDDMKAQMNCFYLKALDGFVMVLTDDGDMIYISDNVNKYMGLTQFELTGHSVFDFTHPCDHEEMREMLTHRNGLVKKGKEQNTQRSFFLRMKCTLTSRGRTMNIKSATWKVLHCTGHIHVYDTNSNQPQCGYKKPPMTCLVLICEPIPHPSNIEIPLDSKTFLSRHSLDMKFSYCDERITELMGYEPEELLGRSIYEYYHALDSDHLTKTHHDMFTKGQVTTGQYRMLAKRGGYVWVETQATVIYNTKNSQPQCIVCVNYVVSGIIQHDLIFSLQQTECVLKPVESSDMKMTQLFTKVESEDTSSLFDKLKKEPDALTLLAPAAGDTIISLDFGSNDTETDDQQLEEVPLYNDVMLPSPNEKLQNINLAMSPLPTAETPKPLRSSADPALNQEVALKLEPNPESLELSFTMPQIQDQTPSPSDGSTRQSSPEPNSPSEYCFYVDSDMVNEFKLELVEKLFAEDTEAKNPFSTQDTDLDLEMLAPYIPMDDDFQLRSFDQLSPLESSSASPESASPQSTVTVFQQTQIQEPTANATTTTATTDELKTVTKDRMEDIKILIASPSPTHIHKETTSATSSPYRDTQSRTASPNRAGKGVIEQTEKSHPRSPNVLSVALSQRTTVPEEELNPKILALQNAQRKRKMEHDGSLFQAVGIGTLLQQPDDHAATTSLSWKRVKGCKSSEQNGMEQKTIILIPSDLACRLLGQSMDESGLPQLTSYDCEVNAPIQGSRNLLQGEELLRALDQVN
UniProt P15311, residues 2-296: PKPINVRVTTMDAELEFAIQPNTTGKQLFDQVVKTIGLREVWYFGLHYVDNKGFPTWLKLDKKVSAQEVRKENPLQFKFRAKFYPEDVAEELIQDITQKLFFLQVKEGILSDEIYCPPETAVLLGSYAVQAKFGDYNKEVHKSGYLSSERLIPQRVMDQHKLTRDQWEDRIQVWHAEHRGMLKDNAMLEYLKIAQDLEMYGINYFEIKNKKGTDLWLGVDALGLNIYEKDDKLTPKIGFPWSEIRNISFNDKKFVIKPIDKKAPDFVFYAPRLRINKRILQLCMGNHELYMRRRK
UniProt Q9NQU5: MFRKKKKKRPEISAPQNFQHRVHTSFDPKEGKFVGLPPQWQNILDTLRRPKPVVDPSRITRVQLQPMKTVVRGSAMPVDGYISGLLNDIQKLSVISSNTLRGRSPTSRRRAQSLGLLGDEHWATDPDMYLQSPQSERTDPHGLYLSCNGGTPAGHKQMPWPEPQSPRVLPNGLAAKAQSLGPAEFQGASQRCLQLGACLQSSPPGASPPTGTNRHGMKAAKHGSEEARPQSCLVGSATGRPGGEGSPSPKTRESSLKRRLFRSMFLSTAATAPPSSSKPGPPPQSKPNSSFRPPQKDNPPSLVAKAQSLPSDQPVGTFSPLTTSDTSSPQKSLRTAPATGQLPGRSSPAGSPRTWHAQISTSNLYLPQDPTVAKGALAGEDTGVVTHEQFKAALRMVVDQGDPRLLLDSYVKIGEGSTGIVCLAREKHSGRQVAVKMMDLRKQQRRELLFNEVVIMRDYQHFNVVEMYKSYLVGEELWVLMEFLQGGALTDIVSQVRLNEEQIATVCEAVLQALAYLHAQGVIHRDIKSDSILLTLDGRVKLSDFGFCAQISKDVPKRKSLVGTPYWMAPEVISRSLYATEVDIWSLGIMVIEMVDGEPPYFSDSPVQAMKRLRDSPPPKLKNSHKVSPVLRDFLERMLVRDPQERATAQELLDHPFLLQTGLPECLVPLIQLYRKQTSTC

Columns and labels:
[1] = target: GST-tagged merlin FERM domain (human) (UniProt P35240); test: pull-down; GST-tagged moesin or merlin FERM domain mixed with lysate of transfected HEK293 cells (0.5 mg protein) and GSH magnetic beads, GFP-Trap or anti-FLAG M2 beads, overnight 4 °C; 50 mM Tris-HCl pH 7.4, 150 mM NaCl, 0.5% NP-40; immunoblot; only the target purified
[2] = target: GST-tagged moesin FERM domain (UniProt P26038); test: as above
[3] = target: T1, FITC-KIRREL3(637–652) peptide (human) (UniProt Q8IZU9); test: fluorescence polarisation; competition: precomplex of FERM domain (2 x KD) and FITC-KIRREL3(637–652) probe, titrated with unlabeled peptide; constants printed as KD′; FP buffer; both purified
T1 sequence (peptide, FITC label (position not stated)): YYSVNTFKEHHSTPTI

[4] = target: T2, FITC-EBP50(348–358) peptide (UniProt O14745); test: fluorescence polarisation; direct binding of FITC-labeled probe peptide titrated with moesin FERM in the presence of a saturating concentration of unlabeled peptide (80–150 μM); FP buffer; both purified
T2 sequence (peptide, FITC label (position not stated)): WSKKNELFSNL

[5] = target: T1, FITC-KIRREL3(637–652) peptide (human); test: as above
[6] = target: T3, FITC-TBX4(428–443) peptide (human) (UniProt P57082); test: as above
T3 sequence (peptide, FITC label (position not stated)): SYSVQTMETVPYQPFP

[7] = target: T4, FITC-ZNF622(341–356) peptide (human) (UniProt Q969S3); test: as above
T4 sequence (peptide, FITC label (position not stated)): LEFADFYDFRSSYPDH

[8] = target: T2, FITC-EBP50(348–358) peptide; test: fluorescence polarisation; direct binding: 5 nM FITC-labeled probe peptide titrated with FERM domain; 20 mM HEPES pH 7.4, 150 mM NaCl, 0.05% Tween-20, 3 mM DTT; quadratic equation for 1:1 binding; both purified
[9] = target: T5, FITC-FAM83G(111–126) peptide (human) (UniProt A6ND36); test: as above
T5 sequence (peptide, FITC label (position not stated)): AEPLPSLEYWPQKSDR

[10] = target: T1, FITC-KIRREL3(637–652) peptide (human); test: as above
[11] = target: T6, FITC-LATS1(73–88) peptide (human); test: as above
T6 sequence (peptide, FITC label (position not stated)): THHKALQEIRNSLLPF

[12] = target: T7, FITC-NOP53(192–207) peptide (human); test: as above
T7 sequence (peptide, FITC label (position not stated)): FYDLWASDNPLDRPLV

[13] = target: T3, FITC-TBX4(428–443) peptide (human); test: as above
[14] = target: T4, FITC-ZNF622(341–356) peptide (human); test: as above
[15] = target: T4, FITC-ZNF622(341–356) peptide (human); test: fluorescence polarisation; competition: precomplex of moesin FERM and FITC-ZNF622 probe, titrated with unlabeled peptide; constants printed as KD′; FP buffer (for HIF1A the text names FITC-NOP53 as probe, the table's footnote FITC-ZNF622); both purified

Measured: binding

full-length HIF1A (from UniProt Q16665 1-826)
binds: [2]
no binding: [1]

moesin FERM domain (from UniProt P26038 2-295) (domain or fragment)
not listed: [1] | [2]
binds: all other assays above

ezrin FERM domain (as used in FP) (from UniProt P15311 2-296) (domain or fragment)
binds: [3] | [8] | [9] | [10] | [11] | [12] | [13] | [14]

merlin FERM domain (from UniProt P35240 22-312) (domain or fragment)
no binding: [10] | [13]

full-length PAK6 (from UniProt Q9NQU5 1-681)
binds: [1]
